Measured values: the supplement of paper PMC4604168 (melanoma cell lines)
The list shows a part of the results. Single values are uncertain, as repeats are few or missing.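 The apoptosis fraction was the count of cleaved-PARP antibody-stained nuclei relative to all DNA-stained nuclei, imaged in 1,536-well plates. Screening doses were set so most cells survived, and baseline and induced cleaved-PARP levels vary greatly across cell lines.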

Tests used:
Experiment in all cases: cleaved PARP positive nuclei fraction relative to DMSO control; melanoma cells; higher = more apoptosis
Details in all cases: library dose: low library concentration; 72 h
MZ2-MEL = tested on: MZ2-MEL
MeWo = tested on: MeWo
RPMI7951 = tested on: RPMI7951
RVH-421 = tested on: RVH-421
SkMel28 = tested on: SkMel28
SkMel30 = tested on: SkMel30
SkMel5 = tested on: SkMel5
UACC257 = tested on: UACC257
UACC62 = tested on: UACC62
WM115 = tested on: WM115
WM1716 = tested on: WM1716
WM1745 = tested on: WM1745
WM3526 = tested on: WM3526
WM3619 = tested on: WM3619
WM451Lu = tested on: WM451Lu

Row | Compound | cleaved PARP positive nuclei fraction (MZ2-MEL) | cleaved PARP positive nuclei fraction (MeWo) | cleaved PARP positive nuclei fraction (RPMI7951) | cleaved PARP positive nuclei fraction (RVH-421) | cleaved PARP positive nuclei fraction (SkMel28) | cleaved PARP positive nuclei fraction (SkMel30) | cleaved PARP positive nuclei fraction (SkMel5) | cleaved PARP positive nuclei fraction (UACC257) | cleaved PARP positive nuclei fraction (UACC62) | cleaved PARP positive nuclei fraction (WM115) | cleaved PARP positive nuclei fraction (WM1716) | cleaved PARP positive nuclei fraction (WM1745) | cleaved PARP positive nuclei fraction (WM3526) | cleaved PARP positive nuclei fraction (WM3619) | cleaved PARP positive nuclei fraction (WM451Lu)
1 | NC(=O)Nc1cc(-c2cccc(F)c2)sc1C(=O)N[C@H]1CCCNC1 + COc1ccc(-c2ccc3c(N4CCOCC4)nc(N4C[C@@H](C)O[C@@H](C)C4)nc3n2)cc1CO [KU0063794] (first compound 0.02 µM, partner dose 0.02 µM) | 91.5% | 73.1% | 199% | 45.5% | 110% | 108% | 104% | 149% | 171% | 53.6% | 132% | 109% | 86.8% | 191% | 176%
2 | COCC[n+]1c2c(n(Cc3cnccn3)c1C)C(=O)c1ccccc1C2=O + Oc1nc(-c2ccc(C(F)(F)F)cc2)nc2c1CSCC2 [XAV939] (first compound 0.0004 µM, partner dose 2 µM) | 194% | 122% | 228% | 37.3% | 111% | 36.5% | 79.9% | 164% | 88.8% | 58.6% | 114% | 116% | 66.2% | 94.9% | 145%
3 | C[C@]1(c2nc3c(C(N)=O)cccc3[nH]2)CCCN1 [Veliparib] + CCc1ccc(CCOc2ccc(CC3SC(=O)NC3=O)cc2)nc1 [pioglitazone] (first compound 1.4 µM, partner dose 2 µM) | 58.6% | 30.6% | 69.7% | 24.8% | 142% | 18.7% | 29% | 169% | 29.4% | 174% | 68.4% | 123% | 273% | 106% | 58.7%
4 | Cc1nc(Nc2ncc(C(=O)Nc3c(C)cccc3Cl)s2)cc(N2CCN(CCO)CC2)n1 [dasatanib] + COc1ccc(COc2ccc(Cc3cnc(N)nc3N)cc2OC)cc1 [GW2580] (first compound 0.004 µM, partner dose 1 µM) | 98.1% | 80.2% | 127% | 74.3% | 198% | 47.1% | 41.3% | 184% | 83.3% | 114% | 169% | 163% | 61.8% | 82.7% | 98.8%
5 | Cc1nc(Nc2ncc(C(=O)Nc3c(C)cccc3Cl)s2)cc(N2CCN(CCO)CC2)n1 [dasatanib] + COc1cc2ncnc(Nc3ccc(Oc4ccccc4)cc3)c2cc1OC [SrcI1] (first compound 0.004 µM, partner dose 2 µM) | 166% | 116% | 134% | 78.5% | 452% | 33.2% | 134% | 197% | 158% | 92.5% | 344% | 285% | 64.1% | 90.9% | 96.8%
6 | NC(=O)Nc1cc(-c2cccc(F)c2)sc1C(=O)N[C@H]1CCCNC1 + O=C(Nc1ccccc1)c1cc([N+](=O)[O-])ccc1Cl [GW9662] (first compound 0.02 µM, partner dose 2 µM) | 247% | 59% | 160% | 98.6% | 100% | 198% | 103% | 245% | 122% | 154% | 294% | 91.1% | 75.9% | 107% | 171%
7 | Cn1nnc2c(C(N)=O)ncn2c1=O [temozolomide] + N#Cc1c(O)c2c(-c3ccc(-c4ccccc4O)cc3)csc2[nH]c1=O [A769662] (first compound 2 µM, partner dose 2 µM) | 111% | 47.5% | 46.1% | 103% | 19.5% | 40.2% | 41.8% | 353% | 92.2% | 68.7% | 90.7% | 92.8% | 60.5% | 117% | 56.7%
8 | O=C(CCCCCCC(=O)Nc1ccccc1)NO [vorinostat] + CCCCCCCCCCCC1=C(O)C(=O)C=C(O)C1=O [Embelin] (first compound 0.08 µM, partner dose 1.2 µM) | 116% | 110% | 94.3% | 72.1% | 130% | 275% | 63.4% | 168% | 140% | 21.4% | 67.7% | 109% | 68.1% | 74.1% | 82.2%
9 | O=C(Nc1cccc(Cl)c1)Nc1ncc(CCNc2ncnc3ccsc23)s1 + CC(C)CCN1c2nc(Nc3cc(F)c(O)c(F)c3)ncc2N(C)C(=O)C1C [BID1870] (first compound 0.0008 µM, partner dose 0.2 µM) | 74.2% | 53.6% | 80.3% | 88% | 116% | 42.1% | 32.8% | 140% | 163% | 202% | 101% | 91% | 73.1% | 90.5% | 63.4%
10 | Cn1nnc2c(C(N)=O)ncn2c1=O [temozolomide] + COC(=O)c1sccc1S(=O)(=O)Nc1ccc(Nc2ccccc2)cc1OC [GSK0660] (first compound 2 µM, partner dose 1 µM) | 139% | 64.5% | 42% | 106% | 123% | 25.8% | 76.8% | 108% | 45.5% | 62.7% | 65.9% | 136% | 65.6% | 89.5% | 129%
11 | CC1(C)NC(=O)N(c2ccc([N+](=O)[O-])c(C(F)(F)F)c2)C1=O [nilutamide] + CCCCCCCCCCCC1=C(O)C(=O)C=C(O)C1=O [Embelin] (first compound 1 µM, partner dose 1.2 µM) | 68.6% | 66.7% | 80.8% | 75.1% | 46% | 91.7% | 100% | 71.9% | 65.3% | 94.2% | 135% | 94.4% | 61.8% | 77.5% | 72.8%
12 | OCCn1cc(-c2cnc3nnn(Cc4ccc5ncccc5c4)c3n2)cn1 + CCCCCCCCCCCC1=C(O)C(=O)C=C(O)C1=O [Embelin] (first compound 1 µM, partner dose 1.2 µM) | 131% | 116% | 43.7% | 46.4% | 127% | 55.1% | 83.8% | 140% | 30.8% | 147% | 110% | 97.3% | 40.7% | 68.7% | 284%
13 | CO[C@@H]1[C@H](N(C)C(=O)c2ccccc2)C[C@H]2O[C@]1(C)n1c3ccccc3c3c4c(c5c6ccccc6n2c5c31)C(=O)NC4 [Midostaurin] + O=C1NC(=O)/C(=C/c2ccc(-c3ccc(F)cc3O)o2)S1 [AS252424] (first compound 0.08 µM, partner dose 1 µM) | 75.1% | 63.1% | 90.9% | 58.9% | 230% | 12.5% | 87% | 135% | 136% | 165% | 105% | 121% | 197% | 189% | 193%
14 | CC1(C)NC(=O)N(c2ccc([N+](=O)[O-])c(C(F)(F)F)c2)C1=O [nilutamide] + CCc1ccc(CCOc2ccc(CC3SC(=O)NC3=O)cc2)nc1 [pioglitazone] (first compound 1 µM, partner dose 2 µM) | 59.3% | 252% | 81.6% | 168% | 168% | 144% | 28% | 117% | 74.7% | 88.1% | 91.3% | 108% | 70.8% | 110% | 233%
15 | CC1(C)NC(=O)N(c2ccc([N+](=O)[O-])c(C(F)(F)F)c2)C1=O [nilutamide] + Cn1cc(/C=C2\C(=O)Nc3cccnc32)c2ccccc21 [GW441756] (first compound 1 µM, partner dose 0.4 µM) | 66.9% | 140% | 87% | 57.8% | 60.2% | 53% | 32.8% | 180% | 80.7% | 137% | 95.8% | 103% | 72.7% | 82.5% | 27.8%
16 | Cn1c(Nc2ccc(C(F)(F)F)cc2)nc2cc(Oc3ccnc(-c4ncc(C(F)(F)F)[nH]4)c3)ccc21 + O=C(Nc1ccccc1)c1cc([N+](=O)[O-])ccc1Cl [GW9662] (first compound 0.08 µM, partner dose 2 µM) | 242% | 130% | 118% | 73.3% | 321% | 43.1% | 154% | 1380% | 109% | 250% | 106% | 130% | 393% | 112% | 48.5%
17 | O=C(Nc1cccc(Cl)c1)Nc1ncc(CCNc2ncnc3ccsc23)s1 + N#Cc1c(O)c2c(-c3ccc(-c4ccccc4O)cc3)csc2[nH]c1=O [A769662] (first compound 0.0008 µM, partner dose 2 µM) | 122% | 58.9% | 41.1% | 82.1% | 132% | 68.7% | 114% | 107% | 178% | 141% | 107% | 102% | 66% | 84.2% | 74.4%
18 | O=C(CCCCCCC(=O)Nc1ccccc1)NO [vorinostat] + O=C1NC(=O)/C(=C/c2ccc(-c3ccc(F)cc3O)o2)S1 [AS252424] (first compound 0.08 µM, partner dose 1 µM) | 54.7% | 163% | 180% | 78.5% | 149% | 51.4% | 144% | 252% | 180% | 136% | 66.1% | 105% | 147% | 93.4% | 88%
19 | C=CCn1c(=O)c2cnc(Nc3ccc(N4CCN(C)CC4)cc3)nc2n1-c1cccc(C(C)(C)O)n1 + Oc1cc(-c2nc(-c3ccccc3)[nH]c2-c2ccncc2)ccc1Cl [L779450] (first compound 0.02 µM, partner dose 0.2 µM) | 83.3% | 56.7% | 178% | 120% | 275% | 166% | 38.3% | 190% | 195% | 90.5% | 121% | 127% | 98.5% | 127% | 126%
20 | CO[C@@H]1[C@H](N(C)C(=O)c2ccccc2)C[C@H]2O[C@]1(C)n1c3ccccc3c3c4c(c5c6ccccc6n2c5c31)C(=O)NC4 [Midostaurin] + O=S(=O)(c1ccccc1)N(CC(F)(F)F)c1ccc(C(O)(C(F)(F)F)C(F)(F)F)cc1 [T0901317] (first compound 0.08 µM, partner dose 1.4 µM) | 83.1% | 69.9% | 96.8% | 75.5% | 129% | 19.4% | 156% | 63.5% | 304% | 103% | 111% | 130% | 80.2% | 107% | 61.6%

Part of the list above, as a markdown table:

| Row | Compound | cleaved PARP positive nuclei fraction (MZ2-MEL) | cleaved PARP positive nuclei fraction (MeWo) | cleaved PARP positive nuclei fraction (RPMI7951) | cleaved PARP positive nuclei fraction (RVH-421) | cleaved PARP positive nuclei fraction (SkMel28) | cleaved PARP positive nuclei fraction (SkMel30) | cleaved PARP positive nuclei fraction (SkMel5) | cleaved PARP positive nuclei fraction (UACC257) | cleaved PARP positive nuclei fraction (UACC62) | cleaved PARP positive nuclei fraction (WM115) | cleaved PARP positive nuclei fraction (WM1716) | cleaved PARP positive nuclei fraction (WM1745) | cleaved PARP positive nuclei fraction (WM3526) | cleaved PARP positive nuclei fraction (WM3619) | cleaved PARP positive nuclei fraction (WM451Lu) |
| --- | --- | --- | --- | --- | --- | --- | --- | --- | --- | --- | --- | --- | --- | --- | --- | --- |
| 1 | NC(=O)Nc1cc(-c2cccc(F)c2)sc1C(=O)N[C@H]1CCCNC1 + COc1ccc(-c2ccc3c(N4CCOCC4)nc(N4C[C@@H](C)O[C@@H](C)C4)nc3n2)cc1CO [KU0063794] (first compound 0.02 µM, partner dose 0.02 µM) | 91.5% | 73.1% | 199% | 45.5% | 110% | 108% | 104% | 149% | 171% | 53.6% | 132% | 109% | 86.8% | 191% | 176% |
| 2 | COCC[n+]1c2c(n(Cc3cnccn3)c1C)C(=O)c1ccccc1C2=O + Oc1nc(-c2ccc(C(F)(F)F)cc2)nc2c1CSCC2 [XAV939] (first compound 0.0004 µM, partner dose 2 µM) | 194% | 122% | 228% | 37.3% | 111% | 36.5% | 79.9% | 164% | 88.8% | 58.6% | 114% | 116% | 66.2% | 94.9% | 145% |
